Paper PMC10666356
Results are given in words; binding and its absence hold for the method and conditions named. Binding seen in cells or lysates may run through a third protein. Some entries that bind do so weakly or less than the wild type. For part of these data: Tags and fused reporters may be left off the sequences shown. Blank lines part the entries; values can stand above or below the substance they belong to.

The chains behind the UniProt entries cited, without tags or fusion partners. Where a name states a change or a piece, a line headed by the entry shows the natural chain unless it says otherwise.
UniProt P01106: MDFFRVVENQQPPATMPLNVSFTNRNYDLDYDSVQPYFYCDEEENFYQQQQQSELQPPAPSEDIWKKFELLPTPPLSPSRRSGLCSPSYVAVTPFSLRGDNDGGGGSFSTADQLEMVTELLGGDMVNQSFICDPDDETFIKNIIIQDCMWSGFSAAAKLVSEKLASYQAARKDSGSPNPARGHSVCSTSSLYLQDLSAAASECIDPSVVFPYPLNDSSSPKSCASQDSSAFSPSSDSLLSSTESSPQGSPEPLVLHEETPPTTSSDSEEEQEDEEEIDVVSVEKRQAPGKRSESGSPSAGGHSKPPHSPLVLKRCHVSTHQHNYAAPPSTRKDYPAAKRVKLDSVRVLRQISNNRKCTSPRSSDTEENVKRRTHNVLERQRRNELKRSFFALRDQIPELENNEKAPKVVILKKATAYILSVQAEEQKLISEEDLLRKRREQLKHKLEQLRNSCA

Tests used:
[1] = target: T1, Flag-tagged NONO, wild type, expressed in AGS cells (human) (UniProt Q15233); experiment: co-IP; AGS cells transfected with HA-tagged and Flag-tagged constructs of NONO and c-Myc (Fig. S3b); western blot
T1 sequence: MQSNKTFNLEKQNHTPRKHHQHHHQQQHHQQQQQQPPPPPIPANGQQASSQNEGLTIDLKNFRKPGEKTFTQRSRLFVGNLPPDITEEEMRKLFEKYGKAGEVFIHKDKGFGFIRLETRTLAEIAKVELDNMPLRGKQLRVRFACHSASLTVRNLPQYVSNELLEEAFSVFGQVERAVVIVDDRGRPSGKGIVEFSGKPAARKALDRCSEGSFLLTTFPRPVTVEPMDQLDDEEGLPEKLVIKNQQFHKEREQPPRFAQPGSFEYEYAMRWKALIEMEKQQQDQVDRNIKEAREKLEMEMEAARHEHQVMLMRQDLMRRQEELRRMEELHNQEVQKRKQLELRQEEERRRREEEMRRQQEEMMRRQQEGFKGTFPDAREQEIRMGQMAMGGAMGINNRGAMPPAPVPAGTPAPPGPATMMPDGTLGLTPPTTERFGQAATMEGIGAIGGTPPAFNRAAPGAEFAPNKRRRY

[2] = target: T2, NONO in BiFC vector pBiFC-VN173 (human) (UniProt Q15233); experiment: split reporter; NONO in pBiFC-VN173 and c-Myc in pBiFC-VC155 co-transfected into AGS cells for 24 h; confocal microscopy; cells stably transfected with mock, circ-hnRNPU, sh-Scb or sh-circ-hnRNPU #1 (signal decreased or increased)
T2 sequence: T1 sequence

[3] = target: T1, Flag-tagged NONO, wild type, expressed in AGS cells (human); experiment: co-IP; AGS cells transfected with Flag-tagged WT or mNLS NONO; the legend names 'RIP and western blot'; c-Myc protein detected by western blot

binding [1]: binds
Substance: HA-tagged c-Myc expressed in AGS cells (from UniProt P01106-2 1-454)

binding [2]: binds
Substance: c-Myc in BiFC vector pBiFC-VC155 (from UniProt P01106-2 1-454)

binding [3]: binds
Substance: c-Myc protein in AGS cells (from UniProt P01106 1-454)
